{
  "sequences": {"note": "Chains of the proteins cited; added tags and fusions are not shown. Lines headed by an entry give the natural chain unless they say otherwise; changes in a name come on top. Residues count along the entry.", "UniProt Q15109, residues 23-342": "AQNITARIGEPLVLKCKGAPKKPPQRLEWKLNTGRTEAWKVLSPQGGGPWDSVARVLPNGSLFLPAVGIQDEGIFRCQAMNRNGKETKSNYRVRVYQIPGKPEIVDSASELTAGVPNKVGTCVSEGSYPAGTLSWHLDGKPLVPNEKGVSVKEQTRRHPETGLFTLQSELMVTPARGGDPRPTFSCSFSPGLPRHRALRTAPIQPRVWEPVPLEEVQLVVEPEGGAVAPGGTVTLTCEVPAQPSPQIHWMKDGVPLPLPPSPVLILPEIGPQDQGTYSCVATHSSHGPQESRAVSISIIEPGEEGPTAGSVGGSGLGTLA", "UniProt P01178": "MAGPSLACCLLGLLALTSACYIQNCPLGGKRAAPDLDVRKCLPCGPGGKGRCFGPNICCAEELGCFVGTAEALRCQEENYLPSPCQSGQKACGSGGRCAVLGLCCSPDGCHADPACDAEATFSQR"},
  "source": "paper PMC6389896",
  "about": "(Communications Biology, 2019)",
  "key": {"[1]": {"target": "Endogenous soluble RAGE in human serum (human (endogenous in human serum)) (UniProt Q15109)", "assay": "SEC; gel permeation of human serum (12 ml, preincubated with 48 ng oxytocin) on Superdex 75 pg HiLoad 26/600, 5 mM ammonium acetate pH 7.8, 1.0 ml/min; oxytocin found in the fractions by EIA"}, "[2]": {"target": "Endogenous soluble RAGE in human serum (human (endogenous in human serum)) (UniProt Q15109)", "assay": "co-IP; anti-RAGE monoclonal antibody coupled to an NHS-activated HiTrap column; 50 ml human serum applied in 50 mM Tris-HCl pH 7.4, 0.15 M NaCl; eluted with 100 mM glycine-HCl pH 2.5; eluates analysed by EIA and Western blotting"}},
  "note": "Results are given in words; binding and its absence hold for the method and conditions named. For some assays here: Binding seen in cells or lysates may run through a third protein. Some entries that bind do so weakly or less than the wild type.",
  "data": [
    {"binder": "CYIQNCPLG (peptide, UniProt P01178 20-28)", "note": "[Endogenous oxytocin in human serum]", "values": [
      {"measurement": "binding", "setting": "[1]", "value": "binds"},
      {"measurement": "binding", "setting": "[2]", "value": "binds"}
    ]}
  ]
}
